Cell number change and AC50 data for 59 molecules are collected here from PubChem BioAssay AID2685 (National Center for Advancing Translational Sciences (NCATS), 2010).

This is one part of the list. Shown are side measurements of this screen, not its main read-out; they come without a call. Compounds called inactive in the main read-out are mostly missing here. Words in brackets tell the shape of the fitted curve; partial curves, single points and poor fits give uncertain potencies.

The test is described as follows: qHTS Assay for Lipid Storage Modulators in Drosophila S3 Cells.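 For Cell number change: cells counted by Cell Tracker Red CMTPX staining in the red channel.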 Conditions: BODIPY lipid droplet fluorescence, 18-24 h; for cell number change: measured here: cell count max response, cells fed with added oleic acid. In short, it runs like this: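 Drosophila S3 cells loaded with oleic acid (400 uM, as added) and compounds at several concentrations; lipid droplets imaged by 488-nm laser-scanning cytometry, 500–530 nm intensity and object ratio to cell channel. Percent activity normalized to 20 uM Triacsin C.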
(In general: qHTS replaces the single test concentration by a dilution series.)

Where [1] appears, read: measured here: lipid fluorescence (Fed channel) AC50, cells fed with added oleic acid.
The mark [2] stands for this setting: measured here: cell number channel AC50, cells fed with added oleic acid.

In general, AC50 refers to the midpoint of the concentration-response curve, whichever way the signal moves. The low end stands for activity at low concentration, the high end for activity only at high concentration. Regarding `COc1ccc2cc(C=NS(=O)(=O)c3ccc(C)cc3)n(C)c2c1`, the cell number change is -12%. Also, under setting [1], the AC50 was 0.092 µM [rising, full curve, poor fit]. For the molecule `CS(=O)(=O)N(Cc1ccccc1)c1ccc(C(=O)N2CCN(c3cccc(Cl)c3)CC2)cc1`, the cell number change came out at 10.8%. Take `CCOc1ccc(-c2n[nH]c(C)c2Oc2ccccc2OC)c(O)c1`: the cell number change was -52.6%. The AC50 under setting [2] is 11.6 µM [falling, partial curve]. Under setting [1], the AC50 was 18.4 µM [falling, partial curve]. As for `CCOC(=O)[C@@H]1[C@H]2COc3ccccc3[C@@H]2N2C(=O)N(c3ccccc3)C(=O)[C@@]12C`, the cell number change is 21%. The AC50 under setting [1] is 29.1 µM [rising, single point]. For `COCCN1CCN(Cc2cn(C)nc2-c2ccc(Oc3ccccc3)cc2)CC1`, the cell number change is -14.1%. The same measure, in the same setting: the same measure for `CCCN(CCC)CCNC(=O)c1cc2c(-c3ccc(Cl)cc3)nn(C)c2s1`: 3.9%. For `Cc1ccccc1S(=O)(=O)Cc1ccc(C(=O)N2CCN(c3ccc(F)cc3)CC2)o1`, the cell number change is -39%. Besides, the AC50 under setting [2] was 13 µM [falling, partial curve, poor fit]. For the same molecule, the AC50 under setting [1] is 18.4 µM [falling, partial curve, poor fit]. As for `CCOC(=O)C(=O)Nc1ccc(S(=O)(=O)N2CCOCC2)cc1OC`, the cell number change is -36.7%. Also, under setting [2], the AC50 was 8.2 µM [falling, partial curve, poor fit]. The AC50 under setting [1] is 1.84 µM [falling, full curve, poor fit]. Take `CCn1c(COC(=O)CNC(=O)c2ccccc2)nc2cc(S(=O)(=O)N(C)C)ccc21`: the cell number change worked out at 24.5%. For `O=C(CSc1nnc(Cc2ccccc2)o1)N1CCCc2ccccc21`, the cell number change was 25%. Regarding `O=C(Nc1ccc2c(c1)OCCO2)C1CCN(C(=O)c2ccc(F)cc2)CC1`, the cell number change amounted to 34.8%. In addition, the AC50 under setting [2] was 29.1 µM [rising, single point]. For the molecule `Cc1nc2nc(C)c(CCC(=O)NCCC3=CCCCC3)c(C)n2n1`, the cell number change amounted to 8.39%. The AC50 under setting [1] is 4.11 µM [falling, single point].

For `Nc1nsnc1C(=O)NCCO`, the cell number change was -56.3%. In addition, the AC50 under setting [2] is 0.411 µM [falling, full curve]. For `CCCCn1cnc2c(sc3nc4c(cc32)CSC(C)(C)C4)c1=O`, the cell number change stood at 16.5%. Also, the AC50 under setting [1] was 2.06 µM [rising, full curve]. Consider `O=c1[nH]c(=O)n(Cc2ccco2)c2c1C(C(F)(F)F)(C(F)(F)F)N=C(CCc1ccccc1)N2`, for which the cell number change is -28.1%. Besides, under setting [1], the AC50 is 29.1 µM [falling, single point]. `CS/C(N)=N/N=C/c1ccc2c(c1)OCO2`: the AC50 under setting [1] was 2.06 µM [rising, partial curve]. On to `COc1ccc(NC(=O)c2ccccn2)cc1`, for which the cell number change is 19.5%. Moreover, the half-maximal activity concentration (AC50) under setting [1] is 6.51 µM [falling, partial curve, poor fit]. As for `COc1ccc(-c2cn3nc4c(nc3n2)CCCC4)cc1`, the cell number change stood at 69.5%. For the same molecule, under setting [2], the concentration at half-maximal activity (AC50) was 18.4 µM [rising, single point]. Turning to `Cc1cccc(C)c1NC(=O)CN(C)C(=O)CN1C(=O)NC2(CCCC2)C1=O`, the cell number change is -23%. Under setting [1], the AC50 was 29.1 µM [falling, single point]. Consider `O=Cc1ccc(OCc2cccc(C(F)(F)F)c2)cc1O`, for which the cell number change was -7.29%. The AC50 under setting [2] is 3.66 µM [falling, single point].

Consider `Cc1ccc(NC(=O)CSc2nc(=O)n(CCCN3CCOCC3)c3c2CCCC3)cc1F`, for which the cell number change was determined as 18%. Regarding `CCn1c(SCC(=O)Nc2ccc(F)cc2)nnc1-c1cnccn1`, the AC50 under setting [1] was 6.51 µM [falling, single point]. On to `N#C/C(=C\c1cccc(Br)c1)C(=O)N1CCCCC1`, for which the cell number change was -40.5%. Under setting [2], the AC50 was 16.4 µM [falling, partial curve, poor fit].

As for `CCCCCCNC(=O)c1c(O)c2ccccc2[nH]c1=O`, the cell number change amounted to 9.63%. For the molecule `Cc1[nH]n(-c2ccccc2)c(=O)c1N=Nc1ccccc1`, the cell number change was -20%. For the same molecule, the AC50 under setting [1] was 32.6 µM [falling, single point]. For `COc1ccc(N=c2oc3c(OC)cccc3cc2C(=O)NCc2ccco2)cc1OC`, the cell number change is -20%. In addition, the AC50 under setting [1] is 0.58 µM [rising, single point]. On to `CCN(CC)CCNC(=O)c1cc(-c2ccc(Br)s2)nc2ccccc12`, for which the cell number change turned out to be 10.6%. Also, the AC50 under setting [1] is 0.461 µM [rising, full curve].

Regarding `Cc1ccccc1OCC(=O)Nc1ccccc1-c1ccccc1NC(=O)COc1ccccc1C`, the cell number change amounted to 24.6%. Besides, under setting [1], the AC50 is 4.61 µM [rising, partial curve].

`C/C(=N/NC(=O)c1ccn(C)n1)c1ccncc1`: the cell number change was 7.25%. For the same molecule, the AC50 under setting [1] was 0.461 µM [falling, partial curve, poor fit].

As for `COC(=O)C(=Nc1ccccc1)/C(C(=O)C(=O)N(C)c1ccccc1)=C(\O)c1ccc(Cl)cc1`, the cell number change was 1.76%. Consider `Fc1ccc(CSc2nc3ncccc3[nH]2)cc1`, for which the cell number change was determined as 7.12%. For the same molecule, the AC50 under setting [1] is 5.8 µM [falling, single point].

Turning to `CCOc1ccc(-n2cc(C(=O)N3CCCCCC3)c3cc(OC)c(OC)cc3c2=O)cc1`, the cell number change was -23.7%. Further, under setting [1], the AC50 was 32.6 µM [falling, single point]. Regarding `CCC1(c2ccccc2)NC(=O)N(CC(=O)Nc2cccc(S(=O)(=O)N3CCCC3)c2)C1=O` (stereo not given), the cell number change was -7.16%. The AC50 under setting [1] is 2.59 µM [rising, partial curve, poor fit].

Regarding `Cc1cc(C)n(CC(=O)NCc2cc(-c3nn(C)c(=O)c4ccccc34)ccc2C)n1`, the cell number change was -17.4%. Under setting [1], the AC50 was 0.206 µM [rising, full curve, poor fit]. `COc1ccc(-c2nn(-c3ccccc3)cc2/C=N/NC(=O)c2cccc(S(=O)(=O)Nc3ccccc3OC)c2)cc1`: the cell number change was 27.2%. Under setting [1], the AC50 is 0.13 µM [rising, full curve, poor fit]. Consider `CC1CCN(C(=O)COC(=O)/C=C/c2ccc(Br)o2)CC1`, for which the cell number change is -12.6%. Moreover, the AC50 under setting [1] is 0.00461 µM [falling, full curve, poor fit]. Regarding `CC(NC(=O)Cn1cccc1)c1ccccc1` (stereo not given), the cell number change amounted to 19.4%. Moreover, the AC50 under setting [1] is 25.9 µM [rising, single point]. With `Nc1ccc2nc(SCC(=O)Nc3ccc(N4CCOCC4)c(Cl)c3)sc2c1`, the cell number change is -31.8%. For the same molecule, under setting [2], the AC50 is 32.6 µM [falling, single point]. Further, the AC50 under setting [1] was 18.4 µM [falling, partial curve, poor fit]. Take `CC(C(=O)N1CCOCC1)N1c2cccc3cccc(c23)S1(=O)=O` (stereo not given): the cell number change was found to be 23%. For the same molecule, the half-maximal activity concentration (AC50) under setting [1] was 0.13 µM [falling, full curve, poor fit]. Take `CCN1CCCC1CN(Cc1cc2ccc(C)cc2[nH]c1=O)C(=S)Nc1ccc(OC)cc1OC` (stereo not given): the cell number change is 0.302%. The AC50 under setting [1] is 8.2 µM [rising, partial curve]. On to `N#Cc1ccc(Cl)cc1NC(=O)CSc1nc2nc(-c3cccs3)cc(C(F)(F)F)c2c(=O)[nH]1`, for which the cell number change is 3.47%. In addition, under setting [1], the AC50 was 0.13 µM [rising, full curve, poor fit]. For the molecule `Cc1cnc(C(=O)Nc2nnc(C)s2)cn1`, the cell number change is -24%. In addition, the AC50 under setting [2] is 0.58 µM [falling, single point]. Further, under setting [1], the AC50 was 0.13 µM [falling, full curve, poor fit]. Regarding `O=S(=O)(NCCCSc1ccccc1)c1ccccc1F`, the cell number change amounted to 1.39%. The AC50 under setting [1] is 29.1 µM [rising, partial curve, poor fit].

As to `CCNC(=S)NNC(=O)CCc1nc2cc(Cl)ccc2n(Cc2ccccc2)c1=O`, the cell number change is -5.13%. Also, under setting [1], the AC50 is 5.17 µM [rising, single point]. On to `C=CCn1c(O)c(CN2CCN(Cc3ccccc3)CC2)c(C)c(C#N)c1=O`, for which the cell number change came out at 23.9%. Besides, under setting [1], the AC50 is 0.00461 µM [falling, full curve, poor fit]. `O=C(O)CSc1nc2ccccc2[nH]1`: the cell number change is -43.9%. Further, under setting [2], the AC50 is 0.146 µM [falling, full curve]. Also, the AC50 under setting [1] was 5.8 µM [falling, full curve]. With `Cc1cc2[nH]c3c(c[n+](C)c4ccccc34)c2cc1C`, the cell number change is -63.7%. Moreover, under setting [2], the AC50 is 29.1 µM [falling, partial curve, poor fit]. Under setting [1], the AC50 was 1.3 µM [falling, partial curve]. `CN1CCN(CCOC2Cc3ccccc3Sc3ccc(Cl)cc32)CC1` (stereo not given): the cell number change was determined as 5.76%. Besides, the AC50 under setting [1] is 29.1 µM [falling, single point]. For the molecule `O=C(NCc1ccco1)c1ccccc1NS(=O)(=O)c1ccc2c(c1)OCCO2`, the cell number change is -0.398%. Besides, the AC50 under setting [2] was 0.58 µM [falling, single point]. Moreover, under setting [1], the AC50 is 6.51 µM [falling, single point]. For the molecule `COc1ccc(CCNC(=O)CN(c2cccc([N+](=O)[O-])c2)S(C)(=O)=O)cc1`, the AC50 under setting [1] was 29.1 µM [falling, single point]. `CCN(CC)S(=O)(=O)c1cc(NC(=O)C2CC(=O)N(Cc3ccccc3)C2)ccc1Cl` (stereo not given): the cell number change was -4.1%. For the same molecule, under setting [1], the AC50 is 29.1 µM [falling, single point]. `COc1cccc2sc(N)nc12`: the cell number change was found to be 14.7%. Also, the AC50 under setting [1] was 20.6 µM [falling, single point]. Regarding `Cc1nc2c3c4c(sc3n3c(SCC(=O)NCc5ccco5)nnc3n2n1)COC(C)(C)C4`, under setting [2], the AC50 was 1.3 µM [rising, partial curve, poor fit].

For `CCCCOc1ccc(Cc2cnc(N)nc2N)cc1`, the cell number change was -22.6%. The concentration at half-maximal activity (AC50) under setting [1] is 0.731 µM [falling, partial curve, poor fit]. With `CN(C)CCCN1c2ccccc2Sc2ccc(C(F)(F)F)cc21`, the cell number change was -43%. The AC50 under setting [2] was 20.6 µM [falling, single point]. In addition, under setting [1], the AC50 was 0.00461 µM [rising, full curve, poor fit]. As for `OC1CCC(Nc2ncnc3sccc23)CC1` (stereo not given), the cell number change was -27.6%. As to `Nc1nc(-c2ccccc2)cs1`, the cell number change is -67.8%. Also, the AC50 under setting [2] is 7.31 µM [falling, partial curve]. In addition, under setting [1], the AC50 is 14.6 µM [falling, partial curve]. For `O=[N+]([O-])c1cc([N+](=O)[O-])c(Oc2c(F)cccc2F)cc1NN1CCCCC1`, the cell number change stood at 17.7%. Further, the half-maximal activity concentration (AC50) under setting [1] is 18.4 µM [rising, single point]. With `CCN(C(=O)C1CCCN1S(=O)(=O)c1cccc2nsnc12)c1ccccc1` (stereo not given), the cell number change was -13%. Under setting [1], the AC50 was 16.4 µM [rising, partial curve, poor fit].
